The values that follow come from article PMC6750887.

Sequences of proteins named here, by UniProt entry; tags and fusion partners are left off.
UniProt P42224: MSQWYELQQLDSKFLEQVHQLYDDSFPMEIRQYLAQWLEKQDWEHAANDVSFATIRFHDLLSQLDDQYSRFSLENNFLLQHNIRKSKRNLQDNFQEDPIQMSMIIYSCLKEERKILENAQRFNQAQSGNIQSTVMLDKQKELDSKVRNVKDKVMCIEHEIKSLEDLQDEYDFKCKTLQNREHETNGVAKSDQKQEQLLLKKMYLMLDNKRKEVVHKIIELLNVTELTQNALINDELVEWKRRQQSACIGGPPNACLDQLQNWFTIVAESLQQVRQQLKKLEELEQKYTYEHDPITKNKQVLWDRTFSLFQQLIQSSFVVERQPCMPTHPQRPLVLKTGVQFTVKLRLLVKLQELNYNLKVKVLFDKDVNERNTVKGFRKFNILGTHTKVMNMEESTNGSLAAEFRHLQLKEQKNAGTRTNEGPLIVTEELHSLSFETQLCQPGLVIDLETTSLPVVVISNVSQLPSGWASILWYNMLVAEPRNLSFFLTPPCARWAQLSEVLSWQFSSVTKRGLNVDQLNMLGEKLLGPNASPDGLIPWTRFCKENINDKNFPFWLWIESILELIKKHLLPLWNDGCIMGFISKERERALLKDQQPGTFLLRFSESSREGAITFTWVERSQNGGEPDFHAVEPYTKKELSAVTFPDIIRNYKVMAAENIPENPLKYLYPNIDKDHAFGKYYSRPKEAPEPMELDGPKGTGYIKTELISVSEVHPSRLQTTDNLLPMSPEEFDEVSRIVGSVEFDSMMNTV

The target in experiment [1] is T1, protein tyrosine phosphatase-1B (PTP1B) (UniProt P18031).
T1 sequence: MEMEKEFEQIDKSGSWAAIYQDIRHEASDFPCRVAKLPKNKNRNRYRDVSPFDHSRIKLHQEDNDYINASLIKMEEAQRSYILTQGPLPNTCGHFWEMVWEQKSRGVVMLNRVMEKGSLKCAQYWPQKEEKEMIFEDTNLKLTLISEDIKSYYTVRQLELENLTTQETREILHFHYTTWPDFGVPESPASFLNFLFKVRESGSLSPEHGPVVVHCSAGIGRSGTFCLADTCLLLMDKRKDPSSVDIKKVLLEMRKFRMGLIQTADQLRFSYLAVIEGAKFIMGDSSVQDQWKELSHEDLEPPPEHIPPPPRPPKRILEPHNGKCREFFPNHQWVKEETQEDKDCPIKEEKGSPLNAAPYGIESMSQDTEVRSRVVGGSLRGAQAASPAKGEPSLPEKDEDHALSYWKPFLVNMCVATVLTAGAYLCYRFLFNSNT
The experiment is described as follows: co-IP; HEK293 cells transfected with plasmids encoding STAT1 and PTP1B; lysates immunoprecipitated for STAT1 or PTP1B with Protein A/G-agarose beads and the relevant antibody, blotted for the Flag-tag.

The target of the next experiment is STAT1 (UniProt P42224). The experiment is described as above.

These are yes or no findings as the source states them, for the method shown. Binding seen in cells or lysates may run through a third protein. Some entries that bind do so weakly or less than the wild type.

As for STAT1 (from UniProt P42224 1-750), in experiment [1], the binding result was “binds”.

B1: protein tyrosine phosphatase-1B (PTP1B) (enzyme, UniProt P18031 1-435)
chain: T1 sequence
Take B1: the binding result in the experiment with STAT1 is listed as “binds”.
